Results from patent US9181193B2, “Indenoquinolone compound, preparation method and use thereof” (Second Military Medical University, PLA, priority 2010, dated 2015).
Some entries share one result that the patent states for a list of compounds. At least one compound was matched to its structure with a doubt left.

Target: T1, topoisomerase I (Homo sapiens, UniProt P11387)
T1 sequence (P11387 1-765): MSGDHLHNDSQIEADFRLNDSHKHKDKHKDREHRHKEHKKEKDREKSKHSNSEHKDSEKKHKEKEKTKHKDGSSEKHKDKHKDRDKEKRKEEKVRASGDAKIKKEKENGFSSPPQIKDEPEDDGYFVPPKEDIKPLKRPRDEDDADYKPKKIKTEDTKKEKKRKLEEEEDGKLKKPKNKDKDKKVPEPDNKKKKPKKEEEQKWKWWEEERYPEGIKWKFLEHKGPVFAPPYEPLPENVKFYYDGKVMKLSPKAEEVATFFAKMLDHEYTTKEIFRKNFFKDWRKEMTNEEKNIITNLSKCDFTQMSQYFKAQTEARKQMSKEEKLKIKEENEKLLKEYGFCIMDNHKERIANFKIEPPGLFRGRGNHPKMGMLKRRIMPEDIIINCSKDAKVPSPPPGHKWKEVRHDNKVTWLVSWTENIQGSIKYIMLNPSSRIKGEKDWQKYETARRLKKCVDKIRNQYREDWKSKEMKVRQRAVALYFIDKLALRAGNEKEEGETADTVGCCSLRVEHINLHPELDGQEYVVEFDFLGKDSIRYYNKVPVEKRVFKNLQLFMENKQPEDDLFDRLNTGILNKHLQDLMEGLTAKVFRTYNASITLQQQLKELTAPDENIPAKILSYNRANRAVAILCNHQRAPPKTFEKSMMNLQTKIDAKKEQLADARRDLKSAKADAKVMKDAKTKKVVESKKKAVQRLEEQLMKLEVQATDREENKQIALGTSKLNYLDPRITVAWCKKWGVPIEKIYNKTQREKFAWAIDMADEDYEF
Assay: Topoisomerase I inhibitory activity test (DNA cleavage assay)
Format: biochemical
Parameters: key to the marks not given beside the values
Conditions: range of 0.01-100 uM, graded against camptothecin (++++)

Row | Compound | Topoisomerase I inhibitory activity
1 | O=C1c2cc(Cl)ccc2-c2c(OCCN3CCCCC3)nc3ccccc3c21 [Compound 11] | +++
2 | COc1ccc2c(c1)C(=O)c1c-2c(OCCN2CCCCC2)nc2ccc(OC)cc12 [Compound 15] | ++++
3 | COc1ccc2c(c1)C(=O)c1c-2c(OCCN2CCOCC2)nc2ccccc12 [Compound 5] | +++
